Hit rate of the full screen: of about 320,000 compounds, about 22,000 (6.9%) were called active. The inconclusive results got no clear call from the source; some entries with a clear call stand among them for comparison. Calls come from the whole dose curve; as a rule, active = well fitted inhibition curve with a large enough effect; inconclusive = small, poorly fitted or top-dose-only effect, or another doubt; inactive = no such curve, though single readings can be large or run the other way. Where the call is inconclusive, the potency comes from a doubtful curve fit.
Experiment: Primary qHTS for delayed death inhibitors of the malarial parasite plastid, 96 hour incubation
Settings: P. falciparum luciferase reporter growth; series mostly up to 28.7 µM; activity change, negative = inhibition: at the top concentration
In short: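 Two parasite generations (96 h, 37 C, 5% CO2) of compound exposure in infected erythrocytes (0.05% parasitemia, 2% hematocrit). Luciferase-reporter P. falciparum; decreased luminescence indicates inhibited growth, aimed at apicoplast-acting delayed death.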
% is set by controls: 0 for no effect and ±100 for the full control effect; potency is the fitted concentration of half-maximal effect.

Row | SMILES | activity change, negative = inhibition | Potency
1 | CCOc1ccc(C)cc1S(=O)(=O)n1ccc(C)n1 | inactive: 16.5% | –
2 | CC1CCc2c(sc3ncn(N)c(=N)c23)C1 (configuration not stated) | inactive: -12.5% | –
3 | CCOC(=O)N1CCN(C(=O)c2cc3c(s2)-c2ccccc2OC3)CC1 | – | active: 8.28 µM
4 | Cc1ccc(C)c(S(=O)(=O)c2c(C)cc(C)[nH]c2=O)c1 | inactive: 19.9% | –
5 | COc1cc(/C=C/C(=O)OCC(=O)NC(=O)NC(C)C)cc(S(=O)(=O)N2CCc3ccccc32)c1OC | inactive: -23% | –
6 | COc1cccc(-n2c(SCC(=O)NCc3cccs3)nc3ccccc3c2=O)c1 | – | inconclusive: 11.7 µM [inhibitor, partial curve]
7 | O=C(NCC1CCCO1)c1cc2ccccc2[nH]1 (configuration not stated) | – | inconclusive: 14.7 µM [inhibitor, partial curve, poor fit]
8 | Cc1ccc(C(=O)NC2CCCc3ccccc32)cc1[N+](=O)[O-] (configuration not stated) | – | inconclusive: 18.5 µM [inhibitor, single point]
9 | CC(C)(C)SCCNC(=O)/C=C/c1cccc([N+](=O)[O-])c1 | inactive: 15.9% | –
10 | COc1ccc(NC(=O)CN2C(=O)NC(c3ccccc3)(c3ccccc3)C2=O)cc1OC | inactive: -29.4% | –
11 | Cc1ccc(Cc2c(C)nc3nc(SCC(=O)NCCCN4CCCCCC4)nn3c2C)cc1 | – | active: 10.4 µM
12 | O=c1c2ccccc2nc(SCc2cccc(F)c2)n1Cc1ccco1 | inactive: 7.05% | –
13 | O=S(=O)(c1ccc(Oc2ccc(Br)cc2F)nc1)N1CCCCC1 | – | inconclusive: 10.4 µM [inhibitor, single point]
14 | CCOC(=O)c1ncn2c1[C@@H]1CCNC1C(=O)c1cc(OC)ccc1-2 (some centres not stated) | inactive: -11% | –
15 | COc1ccc(-c2noc(CCCC(=O)Nc3ccc(C(N)=O)cc3)n2)cc1 | – | inconclusive: 10.4 µM [inhibitor, partial curve, poor fit]
16 | CCNC(=S)N(Cc1ccccc1)Cc1nc2ccccc2c(=O)[nH]1 | inactive: -5.98% | –
17 | N/C(=N\OC(=O)c1cccc(Br)c1)c1ccc([N+](=O)[O-])cc1 | inactive: 33% | –
18 | COc1ccc(/C(C)=N/N2C(=O)c3ccccc3NC2c2ccc(O)c(OC)c2)cc1 (configuration not stated) | inactive: 11.4% | –
19 | CCN(CC)S(=O)(=O)c1ccc(OC)c(NC(=O)C2CC(=O)N(c3ccc(C)cc3)C2)c1 (configuration not stated) | inactive: 20.7% | –
20 | COc1ccc(CNc2ccc(-c3ccccc3OC)nn2)cc1 | – | inconclusive: 14.7 µM [inhibitor, partial curve, poor fit]
21 | CCC(=O)NCC(=O)OCC(=O)c1ccccc1 | – | inconclusive: 11.7 µM [inhibitor, partial curve, poor fit]
22 | COc1ccc(CNc2nc3ccccc3n2Cc2ccc(C)cc2)cc1OC | – | inconclusive: 18.5 µM [inhibitor, single point]

Two records drawn at random from the list so far, as already listed:
Row | SMILES | activity change, negative = inhibition | Potency
8 | Cc1ccc(C(=O)NC2CCCc3ccccc32)cc1[N+](=O)[O-] (configuration not stated) | – | inconclusive: 18.5 µM [inhibitor, single point]
11 | Cc1ccc(Cc2c(C)nc3nc(SCC(=O)NCCCN4CCCCCC4)nn3c2C)cc1 | – | active: 10.4 µM
